Results published in PMC7925594.
No constants are given. Whether binding was seen depends on the method and setting. For some of these results: In cells and extracts the contact can be indirect. Some binding calls cover weakened binding; strength is not graded here. For some of these results: Tags and fused reporters may be left off the sequences shown.

By UniProt entry, the sequences of proteins in these tests, tags left out.
UniProt O88522: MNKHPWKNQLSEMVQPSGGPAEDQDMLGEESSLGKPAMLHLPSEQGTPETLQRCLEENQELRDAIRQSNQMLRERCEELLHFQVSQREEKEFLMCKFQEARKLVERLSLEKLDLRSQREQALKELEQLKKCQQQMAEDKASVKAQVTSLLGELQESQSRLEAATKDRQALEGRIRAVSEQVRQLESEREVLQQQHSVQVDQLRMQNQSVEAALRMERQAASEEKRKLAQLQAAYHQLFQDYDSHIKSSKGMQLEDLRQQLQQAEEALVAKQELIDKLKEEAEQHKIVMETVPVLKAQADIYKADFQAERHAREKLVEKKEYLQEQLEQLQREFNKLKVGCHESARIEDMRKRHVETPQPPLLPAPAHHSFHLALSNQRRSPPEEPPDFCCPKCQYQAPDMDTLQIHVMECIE
UniProt Q9Y6K9: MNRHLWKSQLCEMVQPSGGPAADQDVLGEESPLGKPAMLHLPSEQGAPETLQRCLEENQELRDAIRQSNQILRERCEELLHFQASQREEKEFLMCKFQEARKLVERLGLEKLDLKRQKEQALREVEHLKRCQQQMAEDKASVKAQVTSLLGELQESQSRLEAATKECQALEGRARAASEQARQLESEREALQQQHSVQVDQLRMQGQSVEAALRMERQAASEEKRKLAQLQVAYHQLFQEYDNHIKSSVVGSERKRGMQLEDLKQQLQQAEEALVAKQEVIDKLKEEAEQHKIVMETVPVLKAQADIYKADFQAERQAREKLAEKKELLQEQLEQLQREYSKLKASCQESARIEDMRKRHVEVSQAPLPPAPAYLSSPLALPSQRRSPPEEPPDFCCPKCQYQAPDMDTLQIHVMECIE

B1: IKKβ, endogenous in mouse peritoneal macrophages (protein, UniProt O88351 1-757)
chain: MSWSPSLPTQTCGAWEMKERLGTGGFGNVIRWHNQATGEQIAIKQCRQELSPKNRNRWCLEIQIMRRLNHPNVVAARDVPEGMQNLAPNDLPLLAMEYCQGGDLRRYLNQFENCCGLREGAVLTLLSDIASALRYLHENRIIHRDLKPENIVLQQGEKRLIHKIIDLGYAKELDQGSLCTSFVGTLQYLAPELLEQQKYTVTVDYWSFGTLAFECITGFRPFLPNWQPVQWHSKVRQKSEVDIVVSEDLNGAVKFSSSLPFPNNLNSVLAERLEKWLQLMLMWHPRQRGTDPQYGPNGCFRALDDILNLKLVHVLNMVTGTVHTYPVTEDESLQSLKTRIQENTGILETDQELLQKAGLVLLPDKPATQCISDSKTNEGLTLDMDLVFLLDNSKINYETQITPRPPPESVSCILQEPKRNLSFFQLRKVWGQVWHSIQTLKEDCNRLQQGQRAAMMSLLRNNSCLSKMKNAMASTAQQLKAKLDFFKTSIQIDLEKYKEQTEFGITSDKLLLAWREMEQAVEQCGRENDVKHLVERMMALQTDIVDLQRSPMGRKQGGTLDDLEEQARELYRKLREKPRDQRTEGDSQEMVRLLLQAIQSFEKKVRVIYTQLSKTVVCKQKALELLPKVEEVVSLMNEDERTVVRLQEKRQKELWNLLKIACSKVRGPVSGSPDSMNVSRLSHPGQLMSQPSSACDSLPESDKKSEELVAEAHALCSRLESALQDTVKEQDRSFTTLDWSWLQMEDEERCSLEQACD
B2: HA-tagged N4BP1 (full-length) (protein, UniProt O75113 1-896)
chain: MAARAVLDEFTAPAEKAELLEQSRGRIEGLFGVSLAVLGALGAEEPLPARIWLQLCGAQEAVHSAKEYIKGICEPELEERECYPKDMHCIFVGAESLFLKSLIQDTCADLCILDIGLLGIRGSAEAVVMARSHIQQFVKLFENKENLPSSQKESEVKREFKQFVEAHADNYTMDLLILPTSLKKELLTLTQGEENLFETGDDEVIEMRDSQQTEFTQNAATGLNISRDETVLQEEARNKAGTPVSELTKQMDTVLSSSPDVLFDPINGLTPDEEALSNERICQKRRFSDSEERHTKKQFSLENVQEGEILHDAKTLAGNVIADLSDSSADSENLSPDIKETTEEMEYNILVNFFKTMGYSQEIVEKVIKVYGPSTEPLLLLEEIEKENKRFQEDREFSAGTVYPETNKTKNKGVYSSTNELTTDSTPKKTQAHTQQNMVEKFSQLPFKVEAKPCTSNCRINTFRTVPIEQKHEVWGSNQNYICNTDPETDGLSPSVASPSPKEVNFVSRGASSHQPRVPLFPENGLHQQPEPLLPNNMKSACEKRLGCCSSPHSKPNCSTLSPPMPLPQLLPSVTDARSAGPSDHIDSSVTGVQRFRDTLKIPYKLELKNEPGRTDLKHIVIDGSNVAITHGLKKFFSCRGIAIAVEYFWKLGNRNITVFVPQWRTRRDPNVTEQHFLTQLQELGILSLTPARMVFGERIASHDDRFLLHLADKTGGIIVTNDNFREFVNESVSWREIITKRLLQYTFVGDIFMVPDDPLGRSGPRLEEFLQKEVCLRDMQPLLSALPNVGMFDPSFRVPGTQAASTSHQPPTRIQGAPSSHWLPQQPHFPLLPALPSLQQNLPMPAQRSSAETNELREALLKIFPDSEQRLKIDQILVAHPYMKDLNALSAMVLD
B3: N4BP1, endogenous in mouse peritoneal macrophages (protein, UniProt Q6A037 1-893)
chain: MAARVVLDEFTAPAEKAALLERSRGRIEALFGVGLAVLGALGAEEPLPARIWLQLRGAQEAVHSAKEYIKGICEPELEEKECYPKAMHCIFVGAQSLFLKSLIQDTCADLCVLDTGLLGIRGSAEAVVMARSHIQQFVKLFESNENLPSNQRESEIKREFRQFVEAHADSYTMDLLILPTSLKKELLSLTQGEESLFETDDDVITVGDVRPPEYTQSAATGPSSARDEVVVQEDSRNKARTPVSELTKHMDTVFSSSPDVLFVPVNGLSPDEDALSKDRVCHKRRSSDTEERHTKKQFSLENVPEGELLPDGKGSAGNEVIDLSDPASNSTNLSPDGKDTTEEMEYNILVNFFKTMGYSQEIVEKVIREYGPSTEPLLLLEEIEKENKRLQEDRDFPPCTVYPDASQSRNAGVGSTTNELTADSTPKKAQSHTEQSMVERFSQLPFKDSKHCTSNCKVNSFRTVPVGQKQEIWGSKQNSSCTVDLETDGHSASAASASPKDISFVSRGASGHQQRNPAFPENGFQQQTEPLLPNNTKPACEKRSGSCSSPQPKPNYPPLSPPLPLPQLLPSVTEARLGGSSDHIDSSVTGVQRFRDTLKIPYKLELKNEPGRADLKHIVIDGSNVAITHGLKKFFSCRGIAIAVEYFWKLGNRNITVFVPQWRTRRDPNITEQHFLTQLQELGILSLTPARMVFGERIASHDDRFLLHLADKTGGIIVTNDNFREFVTESVSWREIITKRLLQYTFVGDIFMVPDDPLGRNGPRLEEFLRKEAFLRHMQPLLNALPSVGTFDPGFRSPSTQVANNSHQPPPRIQTSSSPWLPQQSHFTALATLPSMQQNPPLPAQRSSAETSELREALLKIFPDSEQKLKIDQILAAHPYMKDLNALSALVLD

Assays:
[1] = molecular target: NEMO, endogenous in mouse peritoneal macrophages (mouse (endogenous in peritoneal macrophages)) (UniProt O88522); assay: co-IP; endogenous proteins in wild-type and N4bp1-/- mouse peritoneal macrophages, unstimulated or stimulated with Pam3CSK4; NP-40 lysis buffer; lysates incubated overnight at 4 °C with NEMO antibody and Protein G magnetic beads, rabbit IgG as control; immunoblot
Flag-tagged NEMO [2] = molecular target: Flag-tagged NEMO (UniProt Q9Y6K9); assay: co-IP; purified recombinant HA-N4BP1 and Flag-NEMO incubated without or with linear hepta-ubiquitin (K63-linked chains in Supplementary Fig. 5b) in assay buffer (50 mM Tris-HCl pH 7.4, 150 mM NaCl, 1 mM dithiothreitol), 2 h at 4 °C; immunoprecipitation with anti-Flag; ubiquitin chains enhanced the interaction dose-dependently; both purified
Flag-tagged NEMO [3] = molecular target: Flag-tagged NEMO (UniProt Q9Y6K9); assay: co-IP; HEK293T or N4BP1-/- HEK293T cells co-transfected with HA-N4BP1 (or deletion mutants) and Flag-NEMO (or deletion mutants); NP-40 lysis buffer; immunoprecipitation and immunoblot

Row | Binder | binding [1] | binding (Flag-tagged NEMO [2]) | binding (Flag-tagged NEMO [3])
1 | B1 | binds | – | –
2 | B2 | – | binds | binds
3 | B3 | binds | – | –
